These are yes or no findings as the source states them, for the method shown. In cells and extracts the contact can be indirect. Some binding calls cover weakened binding; strength is not graded here. For some assays here: Where a sequence is shown, tags or fusion partners need not be part of it.
T1: NDE1-FLAG (human) (UniProt Q9NXR1)
T1 sequence: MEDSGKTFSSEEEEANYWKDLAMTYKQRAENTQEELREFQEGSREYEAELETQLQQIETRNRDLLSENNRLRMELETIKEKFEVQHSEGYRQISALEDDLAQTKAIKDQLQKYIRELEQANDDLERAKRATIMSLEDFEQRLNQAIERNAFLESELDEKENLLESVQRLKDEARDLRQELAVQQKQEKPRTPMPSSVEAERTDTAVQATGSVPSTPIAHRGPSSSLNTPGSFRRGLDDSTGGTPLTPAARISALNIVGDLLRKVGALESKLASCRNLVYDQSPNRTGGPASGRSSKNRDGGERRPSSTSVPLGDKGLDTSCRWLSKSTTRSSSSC

By UniProt entry, the sequences of proteins in these tests, tags left out. Where a name states a change or a piece, a line headed by the entry shows the natural chain unless it says otherwise. Chains listed by the source or under a name are the forms on record and can include a tag or linker.
UniProt E9PV87: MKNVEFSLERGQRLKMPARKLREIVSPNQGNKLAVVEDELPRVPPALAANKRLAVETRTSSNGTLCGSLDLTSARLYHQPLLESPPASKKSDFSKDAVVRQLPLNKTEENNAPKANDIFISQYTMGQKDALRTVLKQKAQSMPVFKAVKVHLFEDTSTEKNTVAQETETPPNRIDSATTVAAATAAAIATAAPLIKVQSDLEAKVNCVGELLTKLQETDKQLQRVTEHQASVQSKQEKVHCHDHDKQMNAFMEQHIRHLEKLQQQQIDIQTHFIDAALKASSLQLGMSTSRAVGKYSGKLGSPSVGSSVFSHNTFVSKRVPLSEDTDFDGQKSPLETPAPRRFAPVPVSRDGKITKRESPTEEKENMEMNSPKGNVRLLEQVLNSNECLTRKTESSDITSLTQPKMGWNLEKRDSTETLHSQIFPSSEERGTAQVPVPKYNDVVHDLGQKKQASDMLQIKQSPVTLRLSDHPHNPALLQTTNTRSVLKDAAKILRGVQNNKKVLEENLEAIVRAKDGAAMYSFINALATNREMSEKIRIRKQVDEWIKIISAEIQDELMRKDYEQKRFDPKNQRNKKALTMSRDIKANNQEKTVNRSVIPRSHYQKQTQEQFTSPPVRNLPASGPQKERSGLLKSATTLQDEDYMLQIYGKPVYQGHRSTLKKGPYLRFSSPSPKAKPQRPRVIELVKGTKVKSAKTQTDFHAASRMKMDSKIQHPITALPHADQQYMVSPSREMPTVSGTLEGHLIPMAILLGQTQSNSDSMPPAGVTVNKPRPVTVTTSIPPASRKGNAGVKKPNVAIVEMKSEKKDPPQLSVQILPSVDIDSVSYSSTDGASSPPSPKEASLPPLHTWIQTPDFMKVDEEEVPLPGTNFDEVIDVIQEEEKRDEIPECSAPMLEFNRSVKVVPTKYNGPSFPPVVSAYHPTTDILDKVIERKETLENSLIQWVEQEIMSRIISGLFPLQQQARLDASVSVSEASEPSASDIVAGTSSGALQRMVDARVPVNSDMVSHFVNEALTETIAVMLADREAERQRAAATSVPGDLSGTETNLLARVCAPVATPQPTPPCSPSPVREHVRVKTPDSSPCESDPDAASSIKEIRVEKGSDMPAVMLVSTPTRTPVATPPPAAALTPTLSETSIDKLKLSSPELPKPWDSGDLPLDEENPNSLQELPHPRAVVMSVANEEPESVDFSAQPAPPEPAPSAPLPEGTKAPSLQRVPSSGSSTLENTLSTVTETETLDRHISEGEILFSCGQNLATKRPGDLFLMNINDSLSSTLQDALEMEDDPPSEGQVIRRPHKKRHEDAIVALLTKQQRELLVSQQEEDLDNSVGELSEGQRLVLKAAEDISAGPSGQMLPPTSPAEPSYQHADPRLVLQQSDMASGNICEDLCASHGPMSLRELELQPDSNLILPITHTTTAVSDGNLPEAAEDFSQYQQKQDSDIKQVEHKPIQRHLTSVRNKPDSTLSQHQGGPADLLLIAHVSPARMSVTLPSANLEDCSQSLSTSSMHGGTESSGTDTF
FBW7β-HA (Q969H0-2, form named): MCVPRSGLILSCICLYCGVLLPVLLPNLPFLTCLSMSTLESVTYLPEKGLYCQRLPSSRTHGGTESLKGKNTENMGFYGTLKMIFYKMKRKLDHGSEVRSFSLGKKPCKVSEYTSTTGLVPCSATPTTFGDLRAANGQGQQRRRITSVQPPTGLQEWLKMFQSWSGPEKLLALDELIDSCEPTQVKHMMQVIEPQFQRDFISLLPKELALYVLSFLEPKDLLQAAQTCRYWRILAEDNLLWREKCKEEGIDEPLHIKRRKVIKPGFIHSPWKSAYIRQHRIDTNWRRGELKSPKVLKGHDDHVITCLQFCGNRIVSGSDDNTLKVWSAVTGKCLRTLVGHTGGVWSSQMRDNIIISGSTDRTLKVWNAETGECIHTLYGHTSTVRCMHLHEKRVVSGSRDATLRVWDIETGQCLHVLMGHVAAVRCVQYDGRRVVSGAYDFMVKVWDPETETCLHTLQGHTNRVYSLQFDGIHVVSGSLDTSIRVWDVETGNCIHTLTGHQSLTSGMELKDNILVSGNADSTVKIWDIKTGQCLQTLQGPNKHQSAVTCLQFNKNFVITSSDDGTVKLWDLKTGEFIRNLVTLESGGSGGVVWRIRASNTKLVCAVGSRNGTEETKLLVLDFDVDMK
FBW7γ-HA (Q969H0-4, form named): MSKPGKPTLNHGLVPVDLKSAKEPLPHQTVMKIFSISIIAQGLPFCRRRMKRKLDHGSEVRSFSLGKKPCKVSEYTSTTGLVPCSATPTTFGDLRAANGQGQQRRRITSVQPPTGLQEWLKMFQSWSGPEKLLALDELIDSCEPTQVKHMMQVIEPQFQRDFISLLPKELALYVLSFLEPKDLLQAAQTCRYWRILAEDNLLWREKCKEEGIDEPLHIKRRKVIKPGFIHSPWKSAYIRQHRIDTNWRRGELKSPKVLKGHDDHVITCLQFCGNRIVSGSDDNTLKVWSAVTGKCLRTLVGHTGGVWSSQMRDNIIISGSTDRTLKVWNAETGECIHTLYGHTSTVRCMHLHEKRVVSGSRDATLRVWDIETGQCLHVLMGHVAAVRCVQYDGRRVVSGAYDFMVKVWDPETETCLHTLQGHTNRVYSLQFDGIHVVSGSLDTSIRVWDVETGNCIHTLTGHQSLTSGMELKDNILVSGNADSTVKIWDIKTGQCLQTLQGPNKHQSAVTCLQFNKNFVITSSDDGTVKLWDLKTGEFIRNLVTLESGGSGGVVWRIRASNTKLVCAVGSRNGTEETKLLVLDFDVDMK
UniProt P10070: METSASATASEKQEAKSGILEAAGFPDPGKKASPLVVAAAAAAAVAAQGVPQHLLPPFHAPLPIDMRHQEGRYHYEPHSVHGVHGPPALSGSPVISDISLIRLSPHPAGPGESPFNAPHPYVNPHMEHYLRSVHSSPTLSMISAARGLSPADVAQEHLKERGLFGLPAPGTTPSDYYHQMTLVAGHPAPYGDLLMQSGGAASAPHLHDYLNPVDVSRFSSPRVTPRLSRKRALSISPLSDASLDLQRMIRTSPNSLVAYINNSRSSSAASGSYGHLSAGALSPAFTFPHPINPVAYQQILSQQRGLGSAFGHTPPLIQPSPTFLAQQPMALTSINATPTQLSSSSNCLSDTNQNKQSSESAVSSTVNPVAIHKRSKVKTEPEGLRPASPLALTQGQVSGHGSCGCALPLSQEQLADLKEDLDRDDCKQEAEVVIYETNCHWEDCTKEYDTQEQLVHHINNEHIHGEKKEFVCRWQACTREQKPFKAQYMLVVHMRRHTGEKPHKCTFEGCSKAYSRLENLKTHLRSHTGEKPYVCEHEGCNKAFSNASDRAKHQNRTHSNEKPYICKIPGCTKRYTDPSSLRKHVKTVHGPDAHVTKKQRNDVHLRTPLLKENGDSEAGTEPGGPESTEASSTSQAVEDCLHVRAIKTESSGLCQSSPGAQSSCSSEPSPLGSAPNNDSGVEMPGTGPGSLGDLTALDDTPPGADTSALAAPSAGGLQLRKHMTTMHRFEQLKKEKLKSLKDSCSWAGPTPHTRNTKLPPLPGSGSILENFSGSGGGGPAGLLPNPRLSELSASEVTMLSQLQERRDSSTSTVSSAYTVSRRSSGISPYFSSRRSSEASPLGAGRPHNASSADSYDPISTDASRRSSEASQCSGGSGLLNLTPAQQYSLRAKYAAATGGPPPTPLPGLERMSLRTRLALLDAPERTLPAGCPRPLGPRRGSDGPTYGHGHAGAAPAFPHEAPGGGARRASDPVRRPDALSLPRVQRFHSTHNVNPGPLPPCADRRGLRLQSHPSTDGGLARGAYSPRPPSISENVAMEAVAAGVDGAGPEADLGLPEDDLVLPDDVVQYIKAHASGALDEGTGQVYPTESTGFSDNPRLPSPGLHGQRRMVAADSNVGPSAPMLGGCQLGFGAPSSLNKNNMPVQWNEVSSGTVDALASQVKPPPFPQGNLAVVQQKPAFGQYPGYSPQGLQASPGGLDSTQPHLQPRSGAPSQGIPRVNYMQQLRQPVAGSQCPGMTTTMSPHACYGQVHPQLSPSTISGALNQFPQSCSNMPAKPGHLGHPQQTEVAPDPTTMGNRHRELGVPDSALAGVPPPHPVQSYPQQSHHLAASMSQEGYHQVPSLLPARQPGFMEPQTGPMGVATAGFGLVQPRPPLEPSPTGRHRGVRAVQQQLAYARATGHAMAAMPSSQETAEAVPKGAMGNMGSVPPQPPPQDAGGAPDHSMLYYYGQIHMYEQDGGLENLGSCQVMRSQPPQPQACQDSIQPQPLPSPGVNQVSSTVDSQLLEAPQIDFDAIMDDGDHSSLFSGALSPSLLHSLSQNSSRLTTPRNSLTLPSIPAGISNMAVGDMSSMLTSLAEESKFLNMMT


What was measured:
TALPID3-DDK-MYC (mouse) = TALPID3-DDK-MYC (mouse) (UniProt E9PV87); test: co-IP; HEK293T cells transiently transfected; lysates incubated either with a-TALPID3 or with a-HA overnight, Protein G Sepharose beads 3 h at 4 °C, Western blot
NDE1-FLAG (human) = target: T1, NDE1-FLAG (human); test: co-IP; HEK293T cells transiently transfected; lysates (1% Triton X-100, 150 mM NaCl, 10 mM Tris-HCl pH 7.5) incubated with the FLAG antibody overnight, Protein G Sepharose beads 3 h at 4 °C, Western blot
[1] = target: bacterial alkaline phosphatase (FLAG-BAP) [phosphatase: P00634]; test: as above

Molecule | binding (TALPID3-DDK-MYC (mouse)) | also measured
FBW7α-HA (from UniProt Q969H0-1 1-707) | binds | 
FBW7β-HA (from UniProt Q969H0-2 1-627) | binds | 
FBW7γ-HA (from UniProt Q969H0-4 1-589) | binds | 
GLI2-myc (from UniProt P10070 1-1586) |  | binding (NDE1-FLAG (human)): binds
NDE1-FLAG (protein, UniProt Q9NXR1 1-335) MEDSGKTFSSEEEEANYWKDLAMTYKQRAENTQEELREFQEGSREYEAELETQLQQIETRNRDLLSENNRLRMELETIKEKFEVQHSEGYRQISALEDDLAQTKAIKDQLQKYIRELEQANDDLERAKRATIMSLEDFEQRLNQAIERNAFLESELDEKENLLESVQRLKDEARDLRQELAVQQKQEKPRTPMPSSVEAERTDTAVQATGSVPSTPIAHRGPSSSLNTPGSFRRGLDDSTGGTPLTPAARISALNIVGDLLRKVGALESKLASCRNLVYDQSPNRTGGPASGRSSKNRDGGERRPSSTSVPLGDKGLDTSCRWLSKSTTRSSSSC |  | binding [1]: no binding
